From the supplement of paper PMC10849652
The list shows a part of the results.

Amino acid sequences for entries named in this document (tags omitted). A change or cut given only in a name is not applied to a line headed by its entry.
UniProt P21580: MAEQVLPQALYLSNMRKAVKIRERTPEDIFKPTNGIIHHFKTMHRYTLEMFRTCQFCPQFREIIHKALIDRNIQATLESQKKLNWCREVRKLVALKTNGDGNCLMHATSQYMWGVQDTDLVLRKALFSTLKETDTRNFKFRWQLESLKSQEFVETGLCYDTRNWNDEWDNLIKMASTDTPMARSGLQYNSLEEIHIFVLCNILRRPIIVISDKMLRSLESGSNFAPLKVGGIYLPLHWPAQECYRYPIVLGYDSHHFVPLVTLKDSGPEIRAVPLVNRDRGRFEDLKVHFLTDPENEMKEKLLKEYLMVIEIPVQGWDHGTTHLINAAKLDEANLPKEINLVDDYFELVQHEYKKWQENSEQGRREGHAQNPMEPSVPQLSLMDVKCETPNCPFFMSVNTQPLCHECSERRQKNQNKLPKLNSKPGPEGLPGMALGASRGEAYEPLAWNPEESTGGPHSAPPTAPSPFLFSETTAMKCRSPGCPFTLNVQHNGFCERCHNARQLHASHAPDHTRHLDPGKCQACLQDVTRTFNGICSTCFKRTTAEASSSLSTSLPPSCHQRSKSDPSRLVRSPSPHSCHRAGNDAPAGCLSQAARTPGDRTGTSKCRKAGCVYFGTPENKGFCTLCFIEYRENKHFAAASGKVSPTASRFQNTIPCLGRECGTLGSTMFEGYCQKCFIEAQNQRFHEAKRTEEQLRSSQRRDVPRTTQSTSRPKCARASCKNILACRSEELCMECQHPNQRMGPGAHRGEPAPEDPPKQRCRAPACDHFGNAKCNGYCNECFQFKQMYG
UniProt O60784, whole entry, looked up: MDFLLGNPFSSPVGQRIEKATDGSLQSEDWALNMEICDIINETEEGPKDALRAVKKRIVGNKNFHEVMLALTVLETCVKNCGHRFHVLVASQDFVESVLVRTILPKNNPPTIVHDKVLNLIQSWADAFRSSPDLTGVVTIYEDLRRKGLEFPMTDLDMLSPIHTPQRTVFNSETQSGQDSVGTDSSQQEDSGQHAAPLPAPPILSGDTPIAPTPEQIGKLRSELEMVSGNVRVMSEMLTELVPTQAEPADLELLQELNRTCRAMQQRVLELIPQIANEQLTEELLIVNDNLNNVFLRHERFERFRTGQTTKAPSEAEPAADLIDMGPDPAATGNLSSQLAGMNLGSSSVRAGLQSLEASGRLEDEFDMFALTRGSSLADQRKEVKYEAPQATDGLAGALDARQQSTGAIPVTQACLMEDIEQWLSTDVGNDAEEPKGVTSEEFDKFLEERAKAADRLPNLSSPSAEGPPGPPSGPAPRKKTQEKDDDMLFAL
UniProt Q86W33: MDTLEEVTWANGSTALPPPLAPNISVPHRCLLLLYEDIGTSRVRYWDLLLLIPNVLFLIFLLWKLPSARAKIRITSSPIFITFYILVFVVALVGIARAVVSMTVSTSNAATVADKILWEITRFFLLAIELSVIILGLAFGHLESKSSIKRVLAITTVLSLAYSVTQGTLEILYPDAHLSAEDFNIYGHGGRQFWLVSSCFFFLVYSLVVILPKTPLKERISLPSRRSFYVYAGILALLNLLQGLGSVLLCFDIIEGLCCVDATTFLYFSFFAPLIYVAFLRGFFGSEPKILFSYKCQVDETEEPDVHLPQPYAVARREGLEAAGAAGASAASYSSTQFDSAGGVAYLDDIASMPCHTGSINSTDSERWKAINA
UniProt Q0VDI3: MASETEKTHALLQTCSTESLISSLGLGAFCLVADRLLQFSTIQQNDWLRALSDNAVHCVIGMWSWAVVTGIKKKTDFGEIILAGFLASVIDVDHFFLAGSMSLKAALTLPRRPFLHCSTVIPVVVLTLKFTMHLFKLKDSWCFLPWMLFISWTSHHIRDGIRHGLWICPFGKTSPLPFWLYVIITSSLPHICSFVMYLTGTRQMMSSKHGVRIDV
UniProt Q9NV96: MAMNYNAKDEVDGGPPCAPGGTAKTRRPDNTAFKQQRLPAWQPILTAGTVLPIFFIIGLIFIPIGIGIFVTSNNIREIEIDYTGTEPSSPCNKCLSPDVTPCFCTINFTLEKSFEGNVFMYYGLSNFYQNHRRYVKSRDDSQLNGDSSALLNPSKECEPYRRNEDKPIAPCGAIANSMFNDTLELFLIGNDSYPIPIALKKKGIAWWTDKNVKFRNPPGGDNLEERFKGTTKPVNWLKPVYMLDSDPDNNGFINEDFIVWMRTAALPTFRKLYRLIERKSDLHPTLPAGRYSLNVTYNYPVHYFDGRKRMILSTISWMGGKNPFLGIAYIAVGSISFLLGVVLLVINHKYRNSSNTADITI
UniProt P62328: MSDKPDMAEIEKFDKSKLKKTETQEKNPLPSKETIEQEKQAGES
UniProt Q96SK2: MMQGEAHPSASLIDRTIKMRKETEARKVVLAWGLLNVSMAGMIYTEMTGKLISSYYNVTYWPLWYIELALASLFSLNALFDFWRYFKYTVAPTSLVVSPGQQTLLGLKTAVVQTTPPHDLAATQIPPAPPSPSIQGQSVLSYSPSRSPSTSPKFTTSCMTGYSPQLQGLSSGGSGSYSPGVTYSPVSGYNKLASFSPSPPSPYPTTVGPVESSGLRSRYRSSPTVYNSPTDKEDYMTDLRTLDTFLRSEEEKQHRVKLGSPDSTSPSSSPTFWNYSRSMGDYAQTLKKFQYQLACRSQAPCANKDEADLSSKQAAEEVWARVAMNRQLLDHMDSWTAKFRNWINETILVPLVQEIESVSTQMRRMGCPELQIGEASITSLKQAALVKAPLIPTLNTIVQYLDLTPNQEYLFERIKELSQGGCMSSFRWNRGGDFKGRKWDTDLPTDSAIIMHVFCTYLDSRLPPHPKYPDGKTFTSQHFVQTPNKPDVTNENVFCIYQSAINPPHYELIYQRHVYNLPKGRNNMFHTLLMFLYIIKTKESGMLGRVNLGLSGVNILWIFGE
UniProt P28908: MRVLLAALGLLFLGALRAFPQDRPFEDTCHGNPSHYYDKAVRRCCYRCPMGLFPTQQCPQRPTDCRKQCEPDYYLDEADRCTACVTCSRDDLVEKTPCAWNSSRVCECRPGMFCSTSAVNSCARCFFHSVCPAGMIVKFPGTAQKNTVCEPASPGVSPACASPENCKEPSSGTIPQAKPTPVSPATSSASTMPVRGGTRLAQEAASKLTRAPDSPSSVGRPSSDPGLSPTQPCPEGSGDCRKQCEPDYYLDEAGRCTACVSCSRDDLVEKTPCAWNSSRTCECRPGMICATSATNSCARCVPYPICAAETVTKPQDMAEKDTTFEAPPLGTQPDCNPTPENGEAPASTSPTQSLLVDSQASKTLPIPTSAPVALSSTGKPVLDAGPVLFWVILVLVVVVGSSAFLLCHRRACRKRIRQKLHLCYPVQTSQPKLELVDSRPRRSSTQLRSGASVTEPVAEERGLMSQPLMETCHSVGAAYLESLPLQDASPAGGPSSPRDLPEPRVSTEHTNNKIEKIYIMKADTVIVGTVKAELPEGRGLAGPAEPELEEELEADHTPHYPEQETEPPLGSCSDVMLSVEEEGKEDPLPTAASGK
UniProt Q9BTX3: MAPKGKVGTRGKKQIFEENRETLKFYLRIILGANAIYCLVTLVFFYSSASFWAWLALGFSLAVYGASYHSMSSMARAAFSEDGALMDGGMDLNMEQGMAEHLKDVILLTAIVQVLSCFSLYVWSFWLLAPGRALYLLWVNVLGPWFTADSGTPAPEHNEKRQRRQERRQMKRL
UniProt Q9NVH6: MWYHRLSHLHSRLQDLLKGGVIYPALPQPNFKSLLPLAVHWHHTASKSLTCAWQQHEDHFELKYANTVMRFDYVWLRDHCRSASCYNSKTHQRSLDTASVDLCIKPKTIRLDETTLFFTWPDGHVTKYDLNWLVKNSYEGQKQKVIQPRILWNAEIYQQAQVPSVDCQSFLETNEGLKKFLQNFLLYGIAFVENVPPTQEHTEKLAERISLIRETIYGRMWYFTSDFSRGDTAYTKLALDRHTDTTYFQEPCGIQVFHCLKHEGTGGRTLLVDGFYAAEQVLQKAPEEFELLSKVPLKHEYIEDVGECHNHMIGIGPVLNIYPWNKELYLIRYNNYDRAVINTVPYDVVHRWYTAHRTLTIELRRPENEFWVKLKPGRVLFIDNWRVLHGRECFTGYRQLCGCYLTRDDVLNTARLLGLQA
UniProt Q86XT9, whole entry, looked up: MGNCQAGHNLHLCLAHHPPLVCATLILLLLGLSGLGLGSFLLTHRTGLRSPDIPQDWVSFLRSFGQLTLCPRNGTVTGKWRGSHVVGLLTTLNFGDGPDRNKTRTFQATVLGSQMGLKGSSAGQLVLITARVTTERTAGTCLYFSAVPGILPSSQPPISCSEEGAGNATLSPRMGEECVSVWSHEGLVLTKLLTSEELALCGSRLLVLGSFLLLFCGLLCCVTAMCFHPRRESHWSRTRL
UniProt Q5T292: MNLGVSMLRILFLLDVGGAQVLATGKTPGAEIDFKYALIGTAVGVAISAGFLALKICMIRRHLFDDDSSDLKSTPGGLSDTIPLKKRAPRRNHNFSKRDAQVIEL
UniProt Q5BJD5: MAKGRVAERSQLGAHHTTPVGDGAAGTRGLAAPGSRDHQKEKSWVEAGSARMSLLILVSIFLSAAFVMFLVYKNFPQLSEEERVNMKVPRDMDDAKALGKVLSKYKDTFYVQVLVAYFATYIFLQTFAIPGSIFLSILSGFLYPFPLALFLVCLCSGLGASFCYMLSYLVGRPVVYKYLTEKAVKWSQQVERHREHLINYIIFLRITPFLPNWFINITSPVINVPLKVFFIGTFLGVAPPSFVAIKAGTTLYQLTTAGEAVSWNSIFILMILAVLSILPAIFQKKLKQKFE
UniProt Q8NBN3: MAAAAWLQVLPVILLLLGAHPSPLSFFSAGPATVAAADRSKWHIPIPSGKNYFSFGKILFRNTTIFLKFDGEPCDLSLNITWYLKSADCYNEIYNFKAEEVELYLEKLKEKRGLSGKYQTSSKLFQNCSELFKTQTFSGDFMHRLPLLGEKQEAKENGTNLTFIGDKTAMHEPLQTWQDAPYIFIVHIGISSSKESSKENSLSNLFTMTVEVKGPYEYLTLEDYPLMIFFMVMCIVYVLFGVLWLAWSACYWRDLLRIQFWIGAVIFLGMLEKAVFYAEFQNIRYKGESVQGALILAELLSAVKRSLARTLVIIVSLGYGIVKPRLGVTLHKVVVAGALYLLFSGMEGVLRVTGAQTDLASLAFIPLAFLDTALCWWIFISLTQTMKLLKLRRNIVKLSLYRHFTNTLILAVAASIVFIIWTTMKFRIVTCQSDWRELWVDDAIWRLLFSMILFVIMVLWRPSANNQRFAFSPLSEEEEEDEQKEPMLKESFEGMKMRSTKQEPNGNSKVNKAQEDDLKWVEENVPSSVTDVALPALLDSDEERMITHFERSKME
UniProt A5PLL7: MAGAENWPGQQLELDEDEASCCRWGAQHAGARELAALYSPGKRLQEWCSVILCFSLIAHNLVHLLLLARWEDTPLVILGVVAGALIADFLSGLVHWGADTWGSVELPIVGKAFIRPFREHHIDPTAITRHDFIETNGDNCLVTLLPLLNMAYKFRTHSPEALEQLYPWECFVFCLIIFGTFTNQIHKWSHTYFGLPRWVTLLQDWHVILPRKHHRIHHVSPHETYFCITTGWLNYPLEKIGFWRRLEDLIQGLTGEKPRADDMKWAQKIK
UniProt Q6UW68: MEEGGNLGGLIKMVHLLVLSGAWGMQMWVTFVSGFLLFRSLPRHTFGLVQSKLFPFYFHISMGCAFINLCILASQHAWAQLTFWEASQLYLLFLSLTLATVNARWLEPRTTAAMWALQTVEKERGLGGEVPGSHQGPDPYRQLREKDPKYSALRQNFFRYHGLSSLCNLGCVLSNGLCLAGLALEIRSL
UniProt Q9H0R3: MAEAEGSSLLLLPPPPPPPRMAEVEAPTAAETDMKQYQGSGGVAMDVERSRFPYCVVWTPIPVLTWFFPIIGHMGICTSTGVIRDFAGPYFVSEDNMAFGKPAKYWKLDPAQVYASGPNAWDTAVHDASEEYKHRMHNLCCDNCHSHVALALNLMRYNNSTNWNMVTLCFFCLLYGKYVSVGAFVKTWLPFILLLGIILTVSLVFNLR
UniProt H0YL14: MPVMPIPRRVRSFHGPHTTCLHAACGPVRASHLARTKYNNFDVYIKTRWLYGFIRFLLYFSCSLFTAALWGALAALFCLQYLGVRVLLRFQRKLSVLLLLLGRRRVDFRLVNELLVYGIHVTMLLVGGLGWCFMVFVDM
UniProt Q96Q45: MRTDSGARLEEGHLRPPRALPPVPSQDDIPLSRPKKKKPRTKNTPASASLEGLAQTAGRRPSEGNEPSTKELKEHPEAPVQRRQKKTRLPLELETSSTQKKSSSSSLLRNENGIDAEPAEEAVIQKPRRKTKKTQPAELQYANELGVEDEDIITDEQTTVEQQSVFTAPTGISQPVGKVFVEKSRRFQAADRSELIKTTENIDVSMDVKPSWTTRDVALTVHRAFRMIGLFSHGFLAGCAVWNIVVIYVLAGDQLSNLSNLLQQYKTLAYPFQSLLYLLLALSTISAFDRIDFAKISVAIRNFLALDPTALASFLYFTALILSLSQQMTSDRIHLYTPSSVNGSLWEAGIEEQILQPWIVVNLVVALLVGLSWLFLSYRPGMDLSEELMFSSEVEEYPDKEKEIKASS
UniProt Q9NWH2: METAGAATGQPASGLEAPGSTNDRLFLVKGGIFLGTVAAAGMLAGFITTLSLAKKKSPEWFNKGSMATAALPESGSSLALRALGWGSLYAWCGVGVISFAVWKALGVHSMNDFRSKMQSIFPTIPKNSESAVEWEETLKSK

The targets below were run with O=C(CCCCCCC(=O)Nc1ccccc1)NO [vorinostat] (assay: log2 fold change, soluble protein after heating vs DMSO (PISA); higher = thermal stabilisation; K562 lysate, 10 uM; active = over 0.2 and 3.5 SD of the protein, either way, in both replicates (recomputed)).
Method in brief: (§1)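 Thermal stability, expressed as log-two fold change relative to solvent controls, is given from duplicates. Crude K562 extract in PBS pH 7.4 with 1 mM MgCl2, at 1 mg/mL protein, was treated with 10 μM compound for 30 min and heated in aliquots for 3 min across 48°C-58°C. After pooling, adjustment to 0.5% NP-40 at 4°C and centrifugation at 21,000xg for 90 min, supernatant protein was measured by TMTpro 16plex LC-MS/MS with channel sums equalised.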

log2 fold change, inactive:
TNRC6C isoform 2 (UniProt Q9HCJ0) 0.064
TNFAIP3 (UniProt P21580) -0.12
TOM1 (UniProt O60784) 0.088
TPD52L2 isoform 3 (UniProt O43399) 0.258
TPRA1 (UniProt Q86W33) -0.298
TMEM246 (UniProt Q9BRR3) -0.03
TMEM267 (UniProt Q0VDI3) -0.212
TMEM30A (UniProt Q9NV96) 0.054
TMSB4X (UniProt P62328) 0.103
TPD52 isoform 3 (UniProt P55327) 0.168
TMEM209 (UniProt Q96SK2) 0.062
TNFRSF8 (UniProt P28908) 0.065
TMEM208 (UniProt Q9BTX3) 0.148
TMLHE isoform 8 (UniProt Q9NVH6) -0.117
TMEM219 (UniProt Q86XT9) 0.059
TMEM273 isoform 2 (UniProt Q5T292) 0.046
TPK1 (UniProt Q9H3S4) 0.11
TMEM41B (UniProt Q5BJD5) -0.034
TMEM87A (UniProt Q8NBN3) 0.074
TOPAZ1 (UniProt Q8N9V7) 0.065
TOMM6 (UniProt Q96B49) -0.035
TMEM8A (UniProt Q9HCN3) 0.224
TMEM189 (UniProt A5PLL7) 0.144
TPT1 (UniProt E9PJF7) 0.223
TMEM205 (UniProt Q6UW68) 0.045
TMEM222 (UniProt Q9H0R3) 0.067
TOM1 isoform 2 (UniProt O60784) 0.085

These targets were tested with O=C(O)c1ccc2c(c1)nc(Nc1cccc(Cl)c1)c1ccncc12 [silmitasertib] in the same assay as above.
Method in brief: as §1

log2 fold change, inactive:
TNRC6C isoform 2 (UniProt Q9HCJ0) -0.003
TNFAIP3 (UniProt P21580) -0.003
TOM1 (UniProt O60784) 0.171
TPD52L2 isoform 3 (UniProt O43399) -0.058
TPRA1 (UniProt Q86W33) 0.051
TMEM246 (UniProt Q9BRR3) -0.042
TMEM267 (UniProt Q0VDI3) 0.078
TMEM30A (UniProt Q9NV96) -0.007
TMSB4X (UniProt P62328) -0.076
TPD52 isoform 3 (UniProt P55327) -0.028
TMEM209 (UniProt Q96SK2) -0.073
TNFRSF8 (UniProt P28908) -0.005
TMEM208 (UniProt Q9BTX3) 0.037
TMLHE isoform 8 (UniProt Q9NVH6) -0.002
TMEM219 (UniProt Q86XT9) 0.04
TMEM273 isoform 2 (UniProt Q5T292) -0.061
TPK1 (UniProt Q9H3S4) -0.113
TMEM41B (UniProt Q5BJD5) 0.021
TMEM87A (UniProt Q8NBN3) 0.007
TOPAZ1 (UniProt Q8N9V7) -0.001
TOMM6 (UniProt Q96B49) -0.063
TMEM8A (UniProt Q9HCN3) -0.041
TMEM189 (UniProt A5PLL7) -0.036
TPT1 (UniProt E9PJF7) -0.05
TMEM205 (UniProt Q6UW68) -0.004
TMEM222 (UniProt Q9H0R3) 0.034
TOM1 isoform 2 (UniProt O60784) 0

What follows are targets tested with O=C1NC(=O)C(c2cnc3ccccn23)=C1c1cn2c3c(cc(F)cc13)CN(C(=O)N1CCCCC1)CC2 in the same assay as above.
Method in brief: as §1

log2 fold change, inactive:
TNFAIP3 (UniProt P21580) 0.004
TPRA1 (UniProt Q86W33) 0.012
TPRN (UniProt Q4KMQ1) -0.024
TMEM267 (UniProt Q0VDI3) 0.078
TMEM30A (UniProt Q9NV96) 0.014
TMSB4X (UniProt P62328) 0.219
TMEM209 (UniProt Q96SK2) -0.014
TNFRSF8 (UniProt P28908) -0.05
TMEM208 (UniProt Q9BTX3) -0.029
TNS1 (UniProt Q9HBL0) 0.002
TMLHE isoform 8 (UniProt Q9NVH6) 0.055
TMEM219 (UniProt Q86XT9) 0.025
TMEM273 isoform 2 (UniProt Q5T292) -0.128
TMEM41B (UniProt Q5BJD5) 0.008
TMEM87A (UniProt Q8NBN3) -0.013
TNIK isoform 5 (UniProt Q9UKE5) -0.134
TNK2 isoform 3 (UniProt Q07912) -0.211
TMEM250 (UniProt H0YL14) 0.187
TMEM237 isoform 3 (UniProt Q96Q45) 0.04
TMEM242 (UniProt Q9NWH2) 0.104
TMEM189 (UniProt A5PLL7) -0.023
TPT1 (UniProt E9PJF7) 0.067
TMEM268 isoform 3 (UniProt Q5VZI3) -0.058
TMEM205 (UniProt Q6UW68) 0.03
TMEM222 (UniProt Q9H0R3) -0.008
TOM1 isoform 2 (UniProt O60784) -0.018
